The values below are quoted from earlier work in patent publication US20210236575A1 (priority 2018, published 2021).

As a reminder, the Ki is a measure of affinity in units of concentration, obtained from inhibition or displacement.

The target of this data set is CB1 receptor. Particulars: read-out: Ki affinity binding; Stefano et al, 1997; cited from earlier work.

In the case of `NCCCC(=O)O` [GABA, Gamma aminobutyric acid], the Ki is 760 to 1000 nM.
